Record: PubChem BioAssay AID504804 (Drosophila RNAi Screening Center, 2011)

Test: 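Knock-downs shielding fly cells from apoptosis caused by DNA damage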 (primary screen)
System: Drosophila Kc cells
Reagents: long dsRNA against Drosophila genes, 0.5 µg dsRNA per well
Duration: 96 h (48 h knock-down, then 48 h drug)
Treatment: doxorubicin 5 µg/ml for 48 h, added 48 h after dsRNA
Read-out: 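Luminescent ATP counts per replicate, not normalised, reflecting viable cells after 48 h dsRNA knock-down followed by 48 h of 5 µg/ml doxorubicin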
Scale: raw ATP luminescence: higher = more viable cells, protection from doxorubicin
Call rule: 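z-score of 2 or more over plate mean in both duplicates, retained only when retests and separate dsRNAs confirm the protection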
The screen tested about 19,000 reagents; shown is an unselected part of those that have a named target and a result. Of all reagents, 47 (0.25%) are marked active. 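Signals are raw, not normalised; exact z-scores behind calls not deposited; actives needed confirmation, so some wells reaching 2 SD are inactive.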 Entries without a mark were called inactive. Names joined by + are all predicted targets of the reagent.

CG31176 [DRSC15038] showed raw ATP luminescence, replicate 1 = 48960; raw ATP luminescence, replicate 2 = 47780.
CG31176 [DRSC16021] scored raw ATP luminescence, replicate 1 = 51900; raw ATP luminescence, replicate 2 = 55770.
NAT1 [DRSC06854] showed raw ATP luminescence, replicate 1 = 59037; raw ATP luminescence, replicate 2 = 59390.
After knock-down of CG17110 [DRSC15173], the screen gave raw ATP luminescence, replicate 1 = 79550; raw ATP luminescence, replicate 2 = 72840.
For CG42542 [DRSC15549] the deposit lists raw ATP luminescence, replicate 1 = 60547; raw ATP luminescence, replicate 2 = 19040.

In a second layout: 2 of the entries above
NAT1 [DRSC06854]
- raw ATP luminescence, replicate 1: 59037
- raw ATP luminescence, replicate 2: 59390

CG17110 [DRSC15173]
- raw ATP luminescence, replicate 1: 79550
- raw ATP luminescence, replicate 2: 72840

The list goes on:
With knock-down of stau [DRSC07698] the results were raw ATP luminescence, replicate 1 = 68277; raw ATP luminescence, replicate 2 = 60130.
Knock-down of Grip [DRSC17940] came out at: raw ATP luminescence, replicate 1 = 17670; raw ATP luminescence, replicate 2 = 17440.
Against Grip [DRSC18395] the deposit lists raw ATP luminescence, replicate 1 = 36270; raw ATP luminescence, replicate 2 = 35970.
With knock-down of rswl [DRSC06923], the screen gave raw ATP luminescence, replicate 1 = 63660; raw ATP luminescence, replicate 2 = 67707.
Silencing of SERCA [DRSC04600] resulted in: raw ATP luminescence, replicate 1 = 67027; raw ATP luminescence, replicate 2 = 61547.
After knock-down of MED23 + CG3700 [DRSC04406], the screen gave raw ATP luminescence, replicate 1 = 41800; raw ATP luminescence, replicate 2 = 42500.
MED23 + CG3700 [DRSC04407] gave raw ATP luminescence, replicate 1 = 69173; raw ATP luminescence, replicate 2 = 60257.
